Assay results as given in the supplement of paper PMC12889115.
This is one part of the list. Values are raw readings; no control value is given beside them.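 First-pass screen: polymyxin B was added at a level that permeabilizes the Salmonella outer membrane while sparing the inner membrane. DMSO wells, with and without polymyxin B, defined maximum growth. Because plates differed from one another, each plate's data were ranked separately and the compounds with the lowest OD600 were carried forward as hits.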

Tested on: Salmonella enterica serovar Typhimurium SL1344
Assay: bacterial growth OD600 after 18 h with compound and polymyxin B; higher = more bacterial growth (less inhibition)
Conditions: 50 µM, Mueller-Hinton broth

Row | SMILES | bacterial growth OD600 (polymyxin B 0.75 µg/mL) | bacterial growth OD600 (polymyxin B 1 µg/mL)
1 | O=C(CCN1CCCO1)N1CCCC(CCc2ccc(F)c(F)c2)C1 (stereo unspecified) | 0.684 | –
2 | CCC(CC)C(=O)NCC1Cc2cccc(-c3ncccc3C)c2O1 (stereo unspecified) | 0.819 | –
3 | CCOc1ccc(-c2nc(CN(C)C(C)c3cccc(OC)c3)c(C)o2)cc1 (stereo unspecified) | – | 0.704
4 | CCOC(=O)CC1CCCCN1Cc1cn(C)nc1-c1ccc2c(c1)OCCO2 (stereo unspecified) | – | 0.803
5 | COc1ccc(CCC2CCCN(C3CCN(C(C)=O)CC3)C2)cc1 (stereo unspecified) | 0.931 | –
6 | O=C(Cc1ccccc1)Nc1ccnn1C1CCN(C2CCCCC2)CC1 | – | 0.833
7 | CC(=O)c1cccc(OCc2cc(C(=O)N(C)Cc3cccnc3)n[nH]2)c1 | – | 0.929
8 | Cc1cc(C(=O)N2CCc3c([nH]c4ccccc34)C2c2ccc(F)cc2)no1 (stereo unspecified) | – | 0.003
9 | CCN1CC(CN(C)c2nc3nonc3nc2NC2CCCC2)CC1=O (stereo unspecified) | – | 0.88
10 | COCCNC(=O)c1ccc(OC)cc1OC1CCN(CC2CCCC2)CC1 | – | 0.905
11 | O=C(CCC1CCCC1)N1CCC(C2CCN(c3ncccn3)CC2)C1 (stereo unspecified) | 0.274 | –
12 | CC1(C(=O)N2CCCC(N3CCN(Cc4ccc5c(c4)OCO5)CC3)C2)CC1 (stereo unspecified) | – | 1.2
13 | COc1cccc(CNC(=O)CCC2CCCN(C(=O)c3ccc4ncccc4c3)C2)c1 (stereo unspecified) | – | 1.16
14 | CCOC(=O)N1CCN(C(=O)CC2(c3ccc(-c4ccccc4)cc3)CC(=O)N(C)C2=O)CC1 (stereo unspecified) | 0.996 | –
15 | CCc1ccc(CN2CCC(O)(Cc3cc(-c4cccc(OC)c4)no3)CC2)o1 | – | 0.976
16 | O=C(NCCc1ccccn1)c1csc2nc(-c3cccc(F)c3)cn12 | 0.925 | –
17 | CC(Cn1cccn1)Nc1ccc(-c2nc(-c3ccccc3F)no2)cn1 (stereo unspecified) | – | 0.723
18 | CC1=C(C(=O)N2CCCCC2C(=O)Nc2cccc(-c3nnc(C)s3)c2)OCCO1 (stereo unspecified) | 0.863 | –
19 | O=C(c1ccc(OC2CCN(C(=O)C3CC3)CC2)cc1)N(CCO)Cc1cccs1 | – | 0.856
20 | CSCCC(=O)NC1CC(=O)N(Cc2cccc(F)c2)C1 (stereo unspecified) | – | 0.771
21 | CCS(=O)(=O)Nc1cc(C(=O)N(C)Cc2nonc2C)c2c(c1)nc(-c1ccccc1)n2C | 0.842 | –

Compounds 10 to 11 of the list above:
Row | SMILES | bacterial growth OD600 (polymyxin B 0.75 µg/mL) | bacterial growth OD600 (polymyxin B 1 µg/mL)
10 | COCCNC(=O)c1ccc(OC)cc1OC1CCN(CC2CCCC2)CC1 | – | 0.905
11 | O=C(CCC1CCCC1)N1CCC(C2CCN(c3ncccn3)CC2)C1 (stereo unspecified) | 0.274 | –
